Values of other authors in patent publication US7807828B2, “Olanzapine analogs and methods of use thereof” (Hypnion, Inc., priority 2005, dated 2010).
Some results were stated once for a whole list of compounds, not compound by compound.

Protein sequences, listed by entry. Tags and fused reporters are not part of them.
UniProt P30546, whole entry: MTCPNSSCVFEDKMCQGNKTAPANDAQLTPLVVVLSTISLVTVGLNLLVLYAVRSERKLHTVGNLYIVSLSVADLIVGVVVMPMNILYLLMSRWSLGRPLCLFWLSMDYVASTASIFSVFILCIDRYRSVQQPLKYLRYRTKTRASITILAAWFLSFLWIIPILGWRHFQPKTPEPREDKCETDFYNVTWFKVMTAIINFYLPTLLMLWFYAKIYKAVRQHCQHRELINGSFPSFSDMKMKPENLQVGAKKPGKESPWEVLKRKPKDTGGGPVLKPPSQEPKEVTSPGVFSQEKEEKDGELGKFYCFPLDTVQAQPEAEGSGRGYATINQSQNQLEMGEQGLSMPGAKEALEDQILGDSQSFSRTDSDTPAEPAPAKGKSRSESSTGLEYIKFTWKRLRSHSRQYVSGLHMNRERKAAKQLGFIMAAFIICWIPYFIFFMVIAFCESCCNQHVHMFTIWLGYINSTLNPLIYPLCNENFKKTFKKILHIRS

Target: T1, histamine H1 receptor (bovine) (Bos taurus, UniProt P30546)
T1 construct: the receptors were obtained from bovine cerebellar membrane tissue; from tissue; host or cells: bovine cerebellar membranes
Conditions: reference compounds; read-out: Ki of reference compounds in the H1 binding assay (unit inferred); cited from earlier work

For `CN(C)CCCSC(=N)N` [dimaprit], the Ki is listed as over 10 µM.
